Source: patent US7473788B2, “Analogs of terpene trilactones from Ginkgo biloba and related compounds and uses thereof” (The Trustees of Columbia University in the City of New York, priority 2002, dated 2009)
Some results were stated once for a whole list of compounds, not compound by compound.

The chains behind the UniProt entries cited, without tags or fusion partners. Where a name states a change or a piece, a line headed by the entry shows the natural chain unless it says otherwise.
UniProt P21556: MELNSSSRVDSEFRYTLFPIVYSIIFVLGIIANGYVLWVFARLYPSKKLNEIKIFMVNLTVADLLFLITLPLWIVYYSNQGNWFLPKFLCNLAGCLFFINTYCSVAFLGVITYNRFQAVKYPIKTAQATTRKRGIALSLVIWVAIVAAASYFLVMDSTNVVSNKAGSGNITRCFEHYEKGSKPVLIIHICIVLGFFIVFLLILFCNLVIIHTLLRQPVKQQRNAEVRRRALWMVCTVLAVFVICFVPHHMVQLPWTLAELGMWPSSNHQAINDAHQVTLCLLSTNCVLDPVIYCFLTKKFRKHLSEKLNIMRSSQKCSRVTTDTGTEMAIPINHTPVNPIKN

Molecular target: PAFR (Cavia porcellus, UniProt P21556)
Parameters: species or system PAFR transgenic mice
Details: Inhibition of [^3H]-WEB 2086 binding; means of two independent experiments performed in triplicate; listed as 20

Compound: CC1C(=O)O[C@H]2C(O)C34C5OC(=O)[C@@]3(OC3OC(=O)[C@H](O)C34C(C(C)(C)C)[C@@H]5N=[N+]=[N-])[C@@]12O (stereo partly drawn) [7α-N3-GB (20), 7α-Azido Ginkgolide B]
- Ki: 0.55 to 1.62 µM
